The source of these data is PMC7522982, “PKIS deep dive yields a chemical starting point for dark kinases and a cell active BRSK2 inhibitor” (Scientific Reports, 2020).

One data set deals with 305–311 kinases. Also noted: method as in PMID 24651269. The following applies: 305–311 kinases at 1 μM; mobility shift assays and ELISA; cited from earlier work.
Data set [1] has as its system 403 wild type human kinases. Description: DiscoverX scanMAX competition binding assay, whole panel.

For some assays here: The source's definition of the ratio is not given here.

Turning to `COc1cc(Nc2c(C#N)cnc3cc(OCCCN4CCN(C)CC4)c(OC)cc23)c(Cl)cc1Cl` [Bosutinib], the “S10(1 μM) score” value in the data set on 305–311 kinases is recorded as over 0.15.
As for `COc1ccc2[nH]c3c4[nH]c5ccc(OC)cc5c4c4c(c3c2c1)C(=O)NC4=O` [GW296115], in data set [1], the “number of kinases inhibited > 90% at 1 μM” value was 25, the “number of kinases with ≥ 75% inhibition at 1 μM” value is 41 and the “selectivity index (S10) at 1 μM” value is given as 0.062.
Take `COc1cc2nccc(Oc3ccc(NC(=O)C4(C(=O)Nc5ccc(F)cc5)CC4)cc3)c2cc1OC` [cabozantinib]: the “S10(1 μM) score” value in the data set on 305–311 kinases is recorded as over 0.15.
On to `Cc1nc(Nc2ncc(C(=O)Nc3c(C)cccc3Cl)s2)cc(N2CCN(CCO)CC2)n1` [dasatinib], for which, in the data set with 305–311 kinases, the “S10(1 μM) score” value is reported as over 0.15.
On to `Cc1ccc(C(=O)Nc2ccc(CN3CCN(C)CC3)c(C(F)(F)F)c2)cc1C#Cc1cnc2cccnn12` [ponatinib], for which the “S10(1 μM) score” value in the data set on 305–311 kinases is reported as over 0.15.
Turning to `CCN(CC)CCNC(=O)c1c(C)[nH]c(/C=C2\C(=O)Nc3ccc(F)cc32)c1C` [sunitinib], the “S10(1 μM) score” value in the data set on 305–311 kinases is over 0.15.
